Source: PMC5539292, “Calcium Ion Induced Structural Changes Promote Dimerization of Secretagogin, Which Is Required for Its Insulin Secretory Function” (Scientific Reports, 2017)
These are yes or no findings as the source states them, for the method shown. Some binding calls cover weakened binding; strength is not graded here.

Target: hSCGN ΔEF1 (a.a.: Δ1-52) overexpressed in HeLa cells (pcDNA3.1) (human) (UniProt O76038)
Test: non-reducing SDS-PAGE and Western blot of cell lysates; HeLa cells overexpressing hSCGN, treated with H2O2 (with or without 2 μM ionomycin); anti-SCGN antibody

- binding: binds
B1: purified hSCGN ΔEF1 (deletion of 1-52 a.a.) (domain or fragment, human, UniProt O76038 53-276, looked up)
chain: TVMKANLHKVKQQFMTTQDASKDGRIRMKELAGMFLSEDENFLLLFRRENPLDSSVEFMQIWRKYDADSSGFISAAELRNFLRDLFLHHKKAISEAKLEEYTGTMMKIFDRNKDGRLDLNDLARILALQENFLLQFKMDACSTEERKRDFEKIFAYYDVSKTGALEGPEVDGFVKDMMELVQPSISGVDLDKFREILLRHCDVNKDGKIQKSELALCLGLKINP
notes: human secretagogin (SCGN) without residues 1-52 (EF1); The methods describe ΔEF1 only as a pcDNA3.1 construct; also called ΔEF1 protein; recombinant ΔEF1; source: purified recombinant protein
